Common to all, as to assay: log2 fold change of tryptic peptide abundance, ligand vs vehicle (limited proteolysis) (log2 ratio); higher = more trypsin-susceptible (destabilized)
For one experiment, the target named is T1, UniProt P0A908.
T1 sequence (whole entry): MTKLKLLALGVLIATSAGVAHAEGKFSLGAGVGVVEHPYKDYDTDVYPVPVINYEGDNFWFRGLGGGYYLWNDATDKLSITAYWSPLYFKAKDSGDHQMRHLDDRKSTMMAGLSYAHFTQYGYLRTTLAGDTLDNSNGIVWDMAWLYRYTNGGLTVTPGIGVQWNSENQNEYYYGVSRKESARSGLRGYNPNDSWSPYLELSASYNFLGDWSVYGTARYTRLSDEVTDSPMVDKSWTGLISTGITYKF
Conditions: peptide sequence: DSGDHQMR; peptide start residue: 93; ligand concentration: 5 mM; sample: E. coli desalted lysate; replicate design: treated before aliquoting. How it is done: (§1)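 HT-PELSA: desalted E. coli K-12 BW25113 lysate (with 12 mM MgCl2) incubated with 5 mM ATP (pH 7) or water for 30 min at 25 C, then a 4 min trypsin pulse at 22 C. Peptides were quantified by DIA-MS (4 replicates). Value is the peptide log2 fold change (treated/control); negative = stabilized. Scale: negative = ligand-stabilized region.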

The chains behind the UniProt entries cited, without tags or fusion partners. Where a name states a change or a piece, a line headed by the entry shows the natural chain unless it says otherwise.
UniProt P0AAR8: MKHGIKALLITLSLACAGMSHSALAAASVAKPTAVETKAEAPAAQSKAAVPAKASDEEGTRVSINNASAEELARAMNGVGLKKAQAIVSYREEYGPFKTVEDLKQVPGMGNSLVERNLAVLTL

For another experiment, the target named is T2, UniProt P0A915.
T2 sequence (whole entry): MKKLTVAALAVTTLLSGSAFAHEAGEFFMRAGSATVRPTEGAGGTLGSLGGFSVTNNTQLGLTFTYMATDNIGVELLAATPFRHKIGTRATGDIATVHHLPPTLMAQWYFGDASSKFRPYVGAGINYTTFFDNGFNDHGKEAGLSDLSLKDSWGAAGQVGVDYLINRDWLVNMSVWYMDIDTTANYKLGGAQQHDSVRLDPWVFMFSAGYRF
The settings on record: peptide sequence: LGGAQQHDSVR; peptide start residue: 188; ligand concentration: 5 mM; sample: E. coli desalted lysate; replicate design: treated before aliquoting. How it is done:
as §1

Another experiment deals with T3, UniProt P0A9C3.
T3 sequence (whole entry): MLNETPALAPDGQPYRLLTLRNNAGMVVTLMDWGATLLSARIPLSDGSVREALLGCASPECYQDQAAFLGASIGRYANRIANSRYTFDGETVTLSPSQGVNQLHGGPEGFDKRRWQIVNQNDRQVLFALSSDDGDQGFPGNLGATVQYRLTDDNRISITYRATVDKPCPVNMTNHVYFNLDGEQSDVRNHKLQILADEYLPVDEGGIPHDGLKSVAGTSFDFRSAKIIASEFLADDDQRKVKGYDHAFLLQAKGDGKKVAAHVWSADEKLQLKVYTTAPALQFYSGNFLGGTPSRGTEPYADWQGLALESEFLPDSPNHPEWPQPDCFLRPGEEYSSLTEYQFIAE
The settings on record: peptide sequence: IPLSDGSVR; peptide start residue: 42; ligand concentration: 5 mM; sample: E. coli desalted lysate; replicate design: treated before aliquoting. How it is done: as §1

The next experiment concerns the target T4, UniProt P0A9G4.
T4 sequence (whole entry): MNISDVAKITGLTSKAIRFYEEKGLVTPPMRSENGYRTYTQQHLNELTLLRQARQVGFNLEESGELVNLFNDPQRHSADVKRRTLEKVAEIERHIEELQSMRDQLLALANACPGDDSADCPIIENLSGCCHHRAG
The settings on record: peptide sequence: HIEELQSMR; peptide start residue: 94; ligand concentration: 5 mM; sample: E. coli desalted lysate; replicate design: treated before aliquoting. How it is done: as §1

The target of a further experiment is T5, UniProt P0A9V8.
T5 sequence (whole entry): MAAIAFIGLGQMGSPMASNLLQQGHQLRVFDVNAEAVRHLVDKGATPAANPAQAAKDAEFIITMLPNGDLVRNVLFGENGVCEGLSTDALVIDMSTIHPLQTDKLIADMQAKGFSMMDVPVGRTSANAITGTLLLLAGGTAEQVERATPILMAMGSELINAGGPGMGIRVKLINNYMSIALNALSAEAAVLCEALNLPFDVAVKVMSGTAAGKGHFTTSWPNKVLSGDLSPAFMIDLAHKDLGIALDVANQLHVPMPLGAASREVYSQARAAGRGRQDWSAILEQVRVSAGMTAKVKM
Conditions: peptide sequence: VFDVNAEAVR; peptide start residue: 29; ligand concentration: 5 mM; sample: E. coli desalted lysate; replicate design: treated before aliquoting. How it is done: as §1

Another experiment deals with T6, UniProt P0A9W9.
T6 sequence (whole entry): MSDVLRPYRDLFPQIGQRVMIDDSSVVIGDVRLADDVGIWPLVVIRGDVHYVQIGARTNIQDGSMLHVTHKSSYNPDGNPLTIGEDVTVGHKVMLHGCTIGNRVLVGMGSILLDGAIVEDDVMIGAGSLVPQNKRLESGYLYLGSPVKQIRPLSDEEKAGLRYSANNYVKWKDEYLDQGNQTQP
The settings on record: peptide sequence: GDVHYVQIGAR; peptide start residue: 47; ligand concentration: 5 mM; sample: E. coli desalted lysate; replicate design: treated before aliquoting. How it is done: as §1

For another experiment, the target named is T7, UniProt P0AA80.
T7 sequence (whole entry): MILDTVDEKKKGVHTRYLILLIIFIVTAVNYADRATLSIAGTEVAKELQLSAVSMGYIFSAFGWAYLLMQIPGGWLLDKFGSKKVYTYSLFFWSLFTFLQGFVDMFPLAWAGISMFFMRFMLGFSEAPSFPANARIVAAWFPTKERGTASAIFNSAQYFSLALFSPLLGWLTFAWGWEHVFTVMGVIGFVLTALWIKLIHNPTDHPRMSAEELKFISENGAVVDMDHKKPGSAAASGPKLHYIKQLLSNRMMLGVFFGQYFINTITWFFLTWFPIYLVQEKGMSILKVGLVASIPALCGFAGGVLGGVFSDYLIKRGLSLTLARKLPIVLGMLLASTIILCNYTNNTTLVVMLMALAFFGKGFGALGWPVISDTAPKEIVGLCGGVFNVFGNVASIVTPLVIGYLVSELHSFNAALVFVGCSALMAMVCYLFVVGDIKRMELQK
The settings on record: peptide sequence: FISENGAVVDMDHK; peptide start residue: 215; ligand concentration: 5 mM; sample: E. coli desalted lysate; replicate design: treated before aliquoting. How it is done:
as §1

In another experiment the target is T8, UniProt P0AAC8.
T8 sequence (whole entry): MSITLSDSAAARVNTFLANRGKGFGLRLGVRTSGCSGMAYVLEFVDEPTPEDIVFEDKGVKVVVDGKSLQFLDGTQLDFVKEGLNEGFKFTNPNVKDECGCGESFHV
Conditions: peptide sequence: EGLNEGFK; peptide start residue: 82; ligand concentration: 5 mM; sample: E. coli desalted lysate; replicate design: treated before aliquoting. How it is done:
as §1

The next experiment addresses T9, UniProt P0AAJ3.
T9 sequence (whole entry): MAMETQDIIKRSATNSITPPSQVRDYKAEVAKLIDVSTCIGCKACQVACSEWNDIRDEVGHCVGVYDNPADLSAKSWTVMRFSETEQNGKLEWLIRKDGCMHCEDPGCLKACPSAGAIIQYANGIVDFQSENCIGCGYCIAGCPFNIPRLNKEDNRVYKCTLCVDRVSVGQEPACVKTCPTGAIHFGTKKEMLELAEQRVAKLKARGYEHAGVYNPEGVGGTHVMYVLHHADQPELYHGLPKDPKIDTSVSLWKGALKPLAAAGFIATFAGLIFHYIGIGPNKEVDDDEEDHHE
Conditions: peptide sequence: VYKCTLCVDR; peptide start residue: 157; ligand concentration: 5 mM; sample: E. coli desalted lysate; replicate design: treated before aliquoting. How it is done:
as §1

For a further experiment, the target named is T10, UniProt P0AAK1.
T10 sequence (whole entry): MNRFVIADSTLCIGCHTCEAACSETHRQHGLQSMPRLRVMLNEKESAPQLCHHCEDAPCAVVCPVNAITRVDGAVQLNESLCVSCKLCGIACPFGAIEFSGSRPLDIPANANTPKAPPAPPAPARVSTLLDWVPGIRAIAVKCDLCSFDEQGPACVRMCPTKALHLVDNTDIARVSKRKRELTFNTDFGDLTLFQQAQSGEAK
Conditions: peptide sequence: APPAPPAPAR; peptide start residue: 116; ligand concentration: 5 mM; sample: E. coli desalted lysate; replicate design: treated before aliquoting. How it is done: as §1

In the next experiment the target is UniProt P0AAR8. The settings on record: peptide sequence: QVPGMGNSLVER; peptide start residue: 105; ligand concentration: 5 mM; sample: E. coli desalted lysate; replicate design: treated before aliquoting. How it is done:
as §1

The target in the next experiment is T11, UniProt P0AAS3.
T11 sequence (whole entry): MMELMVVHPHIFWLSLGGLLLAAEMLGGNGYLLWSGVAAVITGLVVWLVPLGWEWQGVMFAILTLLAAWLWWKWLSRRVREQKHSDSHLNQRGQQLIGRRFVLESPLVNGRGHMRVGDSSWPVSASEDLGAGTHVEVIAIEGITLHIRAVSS
Conditions: peptide sequence: HSDSHLNQR; peptide start residue: 84; ligand concentration: 5 mM; sample: E. coli desalted lysate; replicate design: treated before aliquoting. How it is done:
as §1

In a further experiment the target is T12, UniProt P0AAV6.
T12 sequence (whole entry): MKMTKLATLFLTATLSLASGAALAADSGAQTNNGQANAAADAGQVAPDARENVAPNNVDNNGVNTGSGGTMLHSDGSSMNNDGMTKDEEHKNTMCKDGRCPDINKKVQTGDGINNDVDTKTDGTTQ
The settings on record: peptide sequence: NTMCKDGR; peptide start residue: 92; ligand concentration: 5 mM; sample: E. coli desalted lysate; replicate design: treated before aliquoting. How it is done:
as §1

The next experiment addresses T13, UniProt P0AB24.
T13 sequence (whole entry): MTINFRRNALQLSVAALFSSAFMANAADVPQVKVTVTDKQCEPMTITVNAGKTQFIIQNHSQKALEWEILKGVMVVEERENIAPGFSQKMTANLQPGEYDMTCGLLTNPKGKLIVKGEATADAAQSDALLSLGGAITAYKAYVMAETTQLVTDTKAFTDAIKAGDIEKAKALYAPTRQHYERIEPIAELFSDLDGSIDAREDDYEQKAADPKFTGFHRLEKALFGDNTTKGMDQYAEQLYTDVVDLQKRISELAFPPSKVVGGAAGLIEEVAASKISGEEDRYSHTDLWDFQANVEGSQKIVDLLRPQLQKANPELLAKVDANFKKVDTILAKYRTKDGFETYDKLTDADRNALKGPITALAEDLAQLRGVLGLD
Conditions: peptide sequence: EDDYEQK; peptide start residue: 201; ligand concentration: 5 mM; sample: E. coli desalted lysate; replicate design: treated before aliquoting. How it is done:
as §1

The target in a further experiment is T14, UniProt P0AB26.
T14 sequence (whole entry): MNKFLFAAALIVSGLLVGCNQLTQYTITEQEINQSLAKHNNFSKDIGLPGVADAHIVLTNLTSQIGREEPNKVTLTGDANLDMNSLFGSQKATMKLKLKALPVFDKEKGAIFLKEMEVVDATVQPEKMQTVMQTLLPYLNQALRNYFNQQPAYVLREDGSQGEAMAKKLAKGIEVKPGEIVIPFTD
The settings on record: peptide sequence: ALPVFDKEK; peptide start residue: 100; ligand concentration: 5 mM; sample: E. coli desalted lysate; replicate design: treated before aliquoting. How it is done: as §1

The entries are a selection whose mix differs from that of the whole data set. Small differences around the control level are noise.

Data on one compound can be found in the supplement of paper PMC12819154, “High-throughput peptide-centric local stability assay extends protein–ligand identification to membrane proteins, tissues and bacteria” (Nature Structural & Molecular Biology, 2025).
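Further: lysate desalted by size exclusion to strip endogenous ATP, peptide intensities built from DIA-NN precursor signals, and peptides missing any value discarded before comparison.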

Turning to `Nc1ncnc2c1ncn2[C@@H]1O[C@H](COP(=O)(O)OP(=O)(O)OP(=O)(O)O)[C@@H](O)[C@H]1O` [adenosine 5'-triphosphate], the log2 fold change is -0.228 with UniProt P0A908; 0.139 in the experiment with UniProt P0A915; 0.378 in the experiment with UniProt P0A9C3; -0.282 with UniProt P0A9G4; -0.427 with UniProt P0A9V8; -0.363 with UniProt P0A9W9. Also, the log2 fold change in the experiment with UniProt P0AA80 was 0.287; with UniProt P0AAC8 it was -0.103; with UniProt P0AAJ3, -0.414; with UniProt P0AAK1, 0.0413; with UniProt P0AAR8 it was -0.219; with UniProt P0AAS3, -0.179. The log2 fold change in the experiment with UniProt P0AAV6 was -0.271; with UniProt P0AB24, -0.389; with UniProt P0AB26, -0.24.
